Measurements reported in PubChem BioAssay AID1259354 (Paczesny and Yang Labs, IUPUI and University of Michigan, 2018).
Several values for one entry are separate records, joined by “and”; a condition that tells them apart may be missing. Equal entries are not always repeated. The campaign covered roughly 78,000 compounds. About 1,800 (2.3%) were called active. Inconclusive means that the source gave no clear call. Such entries were picked first, then a sample of the others. Cut-off read from the data, not from the text of the source: active = inhibition above about 30%; inconclusive = mostly about 10% to 28%; inactive = weaker than that.

The chains behind the UniProt entries cited, without tags or fusion partners. Where a name states a change or a piece, a line headed by the entry shows the natural chain unless it says otherwise.
UniProt Q01638: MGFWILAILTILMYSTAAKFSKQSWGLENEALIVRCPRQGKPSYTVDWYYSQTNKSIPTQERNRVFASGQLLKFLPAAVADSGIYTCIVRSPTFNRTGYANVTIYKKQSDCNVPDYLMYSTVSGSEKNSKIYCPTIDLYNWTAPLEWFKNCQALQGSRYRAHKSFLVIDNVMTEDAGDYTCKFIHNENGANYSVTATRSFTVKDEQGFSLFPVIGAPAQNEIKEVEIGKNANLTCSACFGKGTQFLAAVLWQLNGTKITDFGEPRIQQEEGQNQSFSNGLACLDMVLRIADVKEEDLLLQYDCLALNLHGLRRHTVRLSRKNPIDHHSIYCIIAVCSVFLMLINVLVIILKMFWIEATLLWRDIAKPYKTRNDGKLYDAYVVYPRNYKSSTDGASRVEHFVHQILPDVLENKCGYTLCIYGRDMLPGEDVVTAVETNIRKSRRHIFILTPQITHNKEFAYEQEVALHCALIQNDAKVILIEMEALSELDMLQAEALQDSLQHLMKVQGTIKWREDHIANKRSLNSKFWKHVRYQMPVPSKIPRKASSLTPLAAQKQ

biological target: Interleukin-1 receptor-like 1 (Homo sapiens) (UniProt Q01638); experiment: blocks human ST2 binding to IL-33, primary screen, biochemical, AlphaLISA (AID 1259354); details: AlphaLISA ST2-Fc/biotin-IL-33 interaction, 1 h; at 17 µM, stronger effect = higher value

Row | Structure (SMILES) | inhibition
1 | COc1ccccc1OCC(=O)NC1CC(C)(C)Cc2c1cnn2-c1cccc(F)c1 (configuration not stated) | inconclusive: 12%
2 | O=C(C[C@@H]1CCNC[C@@H]1Cc1cc(COc2ccccc2)on1)NCc1cccs1 | inconclusive: 19%
3 | Cc1ccc(S(=O)(=O)N(CC(=O)Nc2cccc([N+](=O)[O-])c2)c2ccccc2F)cc1 | inconclusive: 14%
4 | CCc1cc(CN(C)C(=O)c2ccc3c(c2)no[n+]3[O-])on1 | inconclusive: 19%
5 | O=C(COCc1ccccc1)N1[C@H]2CCNC[C@@H]1CC2 | inconclusive: 10%
6 | COc1ccc(C2CC(=O)C3=C(C2)Nc2ccccc2NC3c2cc(Cl)c(O)c(OC)c2)cc1 (configuration not stated) | inconclusive: 14%
7 | Cc1ccc(C)c(-n2cc(CNC(C)Cn3cncn3)c(-c3ccccc3)n2)c1 (configuration not stated) | inconclusive: 21%
8 | CCOc1ccc2nc(N3CCCC(C(=O)N4CCCN(C(=O)c5ccco5)CC4)C3)nc(C)c2c1 (configuration not stated) | inconclusive: 14%
9 | COc1ccc(C)cc1S(=O)(=O)NCCOC12CC3CC(CC(C3)C1)C2 | inconclusive: 18%
10 | O=C(CCC(=O)N1CCCC(O)(CO)C1)c1ccccc1 (configuration not stated) | inconclusive: 13%
11 | CCn1cc(Cn2ccnc2-c2ccc(-n3cccn3)cc2)cn1 | inconclusive: 10%
12 | COc1cc2c(cc1OC)C(Nc1nc(-c3ccccc3)cs1)=NC(C)(C)C2 | inconclusive: 15%
13 | Cc1ccc(C(C)NC(=O)CN2C[C@H]3C[C@H](O)[C@@H](O)C[C@H]3C2)cc1 (some centres not stated) | inconclusive: 20%
14 | O=C(NC[C@H]1O[C@@H](CC(=O)N2CCCC2)[C@H](O)[C@@H]1O)c1ccco1 | inconclusive: 12%
15 | COc1ccc2cc3cc(C(=O)Nc4cccc(Cl)c4)oc3nc2c1 | active: 36%
16 | O=C1C2CCCN2C(c2ccc(F)cc2)N1c1ccc(Cl)c(Cl)c1 (configuration not stated) | inconclusive: 13%
17 | CCC(C)N1CC(C(=O)NC2CCCCC2)CC1=O (configuration not stated) | inconclusive: 22%
18 | COc1ccc(CNC(=O)c2cc3cc4ccc(OC)cc4nc3o2)c(OC)c1 | inconclusive: 19% and inconclusive: 10%
19 | Cn1nc([N+](=O)[O-])nc1OCc1nc2ccccc2n1C | inconclusive: 23%
20 | O=C(CC1Sc2ccccc2NC1=O)Nc1ccccc1F (configuration not stated) | inactive
21 | Cc1ccc(NC(=O)c2ccc(Cl)cc2Cl)cc1[N+](=O)[O-] | inactive
22 | CCOC(=O)N1CCC(NCCc2nnc(N)s2)CC1 | inactive
23 | O=C(NCc1ccccc1)/C(=C/c1ccc2c(c1)OCO2)NC(=O)c1ccc(Br)cc1 | inconclusive: 11%

Row | Structure (SMILES) | inhibition
24 | O=C(C1CCCO1)N1CCc2c(nc(-c3ccccn3)[nH]c2=O)C1 (configuration not stated) | inconclusive: 10%
25 | c1cncc(Oc2cccc(Oc3cccnc3)c2)c1 | inconclusive: 29%
26 | CC(C)C1CN(C(=O)c2ccon2)CCCN1CC1CC1 (configuration not stated) | inconclusive: 13%
27 | Cc1ccc(-c2nc(CNc3ccnc(C)n3)[nH]c2-c2ccccn2)cc1 | inconclusive: 19%
28 | COc1cccc(/C=C2\N=C(SC)SC2=O)c1 | inconclusive: 12%
29 | Cn1c(=O)n(C)c2cc(CNC3CCC(=O)N(CC4CC4)CC3)ccc21 (configuration not stated) | inconclusive: 13%
30 | Nc1ncnc2n[nH]c(Nc3ccc(F)cc3)c12 | inconclusive: 16%
31 | O=C(CSc1nc2c(sc3ccccc32)c(=O)n1CCO)NC1CCCCC1 | inconclusive: 17%
32 | N#C/C(C(=O)c1ccccc1)=C1/CCCN1 | inconclusive: 15%
33 | Cc1ccc(Cn2nc(C)c(NC(=O)CCCn3nc(C)c([N+](=O)[O-])c3C)c2C)cc1 | inconclusive: 10%
34 | COc1ccccc1N1CCN(c2ncnc3c2cnn3-c2ccc(Cl)cc2)CC1 | inconclusive: 13%
35 | O=C(c1ccc(Cl)cc1O)N1CCC2(CCOCC2)CC1 | inactive
36 | CC(C)C(NS(=O)(=O)c1cccs1)C(=O)NCc1cccs1 (configuration not stated) | inactive
37 | CN1CC2(CCN(C(=O)c3csc(Cc4ccccc4)n3)C2)OC1=O (configuration not stated) | inconclusive: 21%
38 | COc1ccc(N2CCN(S(=O)(=O)c3cccc4cccnc34)CC2)cc1 | inconclusive: 10%
39 | COc1cc(CN2CCN(Cc3ccc(OC)c(OC)c3OC)CC2)cc(OC)c1OC | inconclusive: 18%
40 | O=c1c2c(nc(SCc3ccccc3Cl)n1-c1ccccc1)CCS2 | inconclusive: 14%
41 | Cc1nn(C(=O)c2sc3ccccc3c2Cl)c(C)c1Cl | inconclusive: 11%
42 | O=C(N[C@H]1CCN2C(=O)c3ccccc3NC(=O)[C@@H]2C1)c1cccs1 | inconclusive: 13%
43 | CC(NS(C)(=O)=O)C(c1cccs1)N1CCN(c2ccccc2)CC1 (configuration not stated) | inconclusive: 16%
44 | O=S(=O)(c1cccc(S(=O)(=O)N2CCOCC2)c1)c1ccc(Cl)c(Cl)c1 | inactive
45 | CCn1c(-c2ccc(O)c(OC)c2)n[nH]c1=O | inconclusive: 12%
46 | C=CCn1cc(C(=O)NC2CCC(C)CC2)c(=O)c2cc(S(=O)(=O)N(CC)CC)ccc21 (configuration not stated) | inconclusive: 13%

Taken from above:
Value of `Cc1nn(C(=O)c2sc3ccccc3c2Cl)c(C)c1Cl` under inhibition: inconclusive: 11%
Value of `O=C1C2CCCN2C(c2ccc(F)cc2)N1c1ccc(Cl)c(Cl)c1` (configuration not stated) under inhibition: inconclusive: 13%
Value of `O=C(CSc1nc2c(sc3ccccc32)c(=O)n1CCO)NC1CCCCC1` under inhibition: inconclusive: 17%
Value of `Cc1ccc(Cn2nc(C)c(NC(=O)CCCn3nc(C)c([N+](=O)[O-])c3C)c2C)cc1` under inhibition: inconclusive: 10%

Remaining list, next part.

Row | Structure (SMILES) | inhibition
47 | COc1ccc(C(=O)N2CCN=C2SCc2ccc(Cl)cc2)cc1 | inconclusive: 10%
48 | Cc1ccc(C(=O)Nc2ccc(N3CCCCC3)cc2)c(Cl)c1 | inconclusive: 18%
49 | COc1ccc(CN2CCN(c3ccccn3)CC2)cc1C | inactive
50 | O=C(Nc1nc(/C=C/c2ccccc2)[nH]c(=O)n1)NS(=O)(=O)c1ccccc1Cl | inconclusive: 26%
51 | Nc1ccnc(N2CCC(N3CCCC3=O)CC2)n1 | inconclusive: 10%
52 | Cc1csc(=Nc2ccccc2)n1-c1ccccc1 | active: 32%
53 | CCNC(=O)O[C@@H]1CO[C@H]2[C@@H]1OC[C@@H]2NC(=S)Nc1cc(OC)cc(OC)c1 | inconclusive: 16%
54 | Cc1ccc(NC(=O)COc2ccccc2)cc1OCc1cc(=O)n2cccc(C)c2n1 | inactive
55 | COC(=O)[C@@H]1Cc2ncn(Cc3ccc(OC)cc3)c2CN1Cc1ccc(OC)cc1 | active: 89%
56 | CC(=O)c1ccc(O)c(CC=C(C)C)c1 | inconclusive: 23%
57 | O=C(c1cnccn1)N1CC[C@H](c2nc3ccccc3o2)C1 | inconclusive: 27%
58 | COc1ccc(C(=O)ON=C2C=CC(=O)C=C2)c(OC)c1 | inconclusive: 13%
59 | COc1ccc2c(c1)CCc1c(C(=O)Nc3cccnc3)noc1-2 | inconclusive: 22%
60 | O=C(Nc1ccc(F)cc1)c1oc2ccccc2c1NC(=O)c1c(F)cccc1F | inactive
61 | CCN1CCN(C(=O)C2c3cc(OC)c(OC)cc3C(=O)N(C)C2c2ccccc2F)CC1 (configuration not stated) | inconclusive: 14%
62 | Cc1nn(-c2ccccn2)c2c1C(=O)/C(=C\Nc1ccccc1C(=O)O)CC2 | inconclusive: 23%
63 | CCN(c1nc(N)c(C(=O)N=C(N)N)nc1Cl)C(C)C | inconclusive: 14%
64 | CC(C)C(NS(=O)(=O)c1cccs1)C(=O)NC(c1ccccc1)c1ccccc1 (configuration not stated) | inactive
65 | CCC(CO)Nc1ncnc2c1cnn2-c1cccc(C)c1 (configuration not stated) | inconclusive: 16%
66 | COc1ccc(Br)cc1/C=C1\C(=O)N(c2ccccc2)N=C1C | inconclusive: 13%
67 | CN1C(=O)C2(CCN(C(=O)c3cc(Cl)c[nH]c3=O)CC2)c2ccccc21 | inconclusive: 18%
68 | Cc1cc2nsnc2c([N+](=O)[O-])c1C | inconclusive: 20%
69 | O=[N+]([O-])c1cccc(CN2CCC(N3CCCCC3)CC2)c1 | inactive

From no. 52 to 55, copied from above:
Row | Structure (SMILES) | inhibition
52 | Cc1csc(=Nc2ccccc2)n1-c1ccccc1 | active: 32%
53 | CCNC(=O)O[C@@H]1CO[C@H]2[C@@H]1OC[C@@H]2NC(=S)Nc1cc(OC)cc(OC)c1 | inconclusive: 16%
54 | Cc1ccc(NC(=O)COc2ccccc2)cc1OCc1cc(=O)n2cccc(C)c2n1 | inactive
55 | COC(=O)[C@@H]1Cc2ncn(Cc3ccc(OC)cc3)c2CN1Cc1ccc(OC)cc1 | active: 89%

The list goes on:

Row | Structure (SMILES) | inhibition
70 | CN(Cc1ccccc1)C(=O)CNC(=O)Cn1ccc2ccccc2c1=O | inactive
71 | O=[N+]([O-])c1cc2c(cc1C=Nc1ccc(Cl)c(Cl)c1)OCO2 | inconclusive: 18%
72 | O=C(COc1cccc([N+](=O)[O-])c1)Nc1ccc(-c2nnc(-c3ccco3)o2)cc1 | active: 45%
73 | COc1ccc(OC)c(C2CC(=O)N3CN(c4cccc(Cl)c4C)CSC3=C2C#N)c1 (configuration not stated) | inconclusive: 15%
74 | O=c1cc(Cc2nnc(SCc3ccc(F)cc3)n2-c2ccccc2)[nH]c(=O)[nH]1 | inactive
75 | CCC1CN(c2cncc(C(=O)N(C)C)n2)CCC(=O)N1Cc1ccccc1 (configuration not stated) | inactive
76 | CC(c1ccccc1)n1cnnc1CCc1ccccc1 (configuration not stated) | inactive
77 | Cc1nc2c(ccc3nc(NC(=O)c4ccc(Br)cc4)sc32)s1 | inconclusive: 22%
78 | Cc1ccc(C)c(NS(=O)(=O)c2c(C)noc2C)c1 | inconclusive: 10%
79 | N#Cc1cccc(CN2C[C@H](O)C[C@H]2c2nc(-c3ccc(F)cc3)no2)c1 | inconclusive: 13%
80 | O=C(COc1ccc(Cl)cc1)N1CCN(Cc2ccc3c(c2)OCO3)CC1 | inconclusive: 15%
81 | CC(c1ccc(-c2cccc(F)c2C(N)=O)cc1)N1CCCCC1 (configuration not stated) | inconclusive: 18%
82 | O=S(=O)(Nc1ccccc1Br)c1ccccc1 | inactive
83 | COc1cc(/C=C2/C(=O)NN(c3ccc(C)c(Cl)c3)C2=O)ccc1OCc1ccccc1 | active: 48%
84 | COc1cccc2cc(-c3nc4ccccc4[nH]3)c(=Nc3ccc(C(N)=O)cc3)oc12 | inconclusive: 27%
85 | Cc1ccc2cc3cc(C(=O)Nc4ccc5c(c4)OCO5)sc3nc2c1 | inconclusive: 22%
86 | COC(=O)[C@H](NC(=O)[C@@]1(O)C[C@@H](O)[C@H](O)[C@@H](NC(=O)CC2(CC(=O)O)CCCC2)C1)C(C)C | inconclusive: 22%
87 | COC(=O)c1ccccc1N1C(=O)C2C3c4ccccc4C(C)(c4ccccc43)C2C1=O (configuration not stated) | inconclusive: 15%
88 | COc1ccccc1C1C(C(N)=O)=C(C)Nc2nc(SCc3ccccc3)nn21 (configuration not stated) | inconclusive: 10%
89 | O=C(Nc1ccccc1Br)c1ccccc1F | inactive
90 | COc1cccc(CN2CCCC3(CCN(C(=O)c4cc(-c5ccc(C)o5)[nH]n4)C3)C2)c1 (configuration not stated) | inconclusive: 20%
91 | O=C(CS(=O)(=O)c1cn(Cc2ccc(Cl)cc2)c2ccccc12)N1CCc2ccccc21 | inactive
92 | Nc1ccc(O)c(-c2nc3ccccc3s2)c1 | inconclusive: 24%
